The nature of this test: qHTS Assay for Lipid Storage Modulators in Drosophila S3 Cells.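 For cell number change: cells counted by Cell Tracker Red CMTPX staining in the red channel.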 To be noted: BODIPY lipid droplet fluorescence, 18-24 h; for cell number change: measured here: cell count max response, cells fed with added oleic acid. In short, it runs like this:
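Drosophila S3 cells got compounds at several concentrations plus oleic acid (400 uM solution). Laser-scanning cytometry with 488 nm excitation read lipid droplets at 500-530 nm and cells at 575-640 nm. Percent activity was relative to 20 uM Triacsin C.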
In general terms: qHTS replaces the single test concentration by a dilution series.

[1] abbreviates: measured here: cell number channel AC50, cells fed with added oleic acid.
[2] abbreviates: measured here: lipid fluorescence (Fed channel) AC50, cells fed with added oleic acid.

Some of the results follow. Shown are side measurements of this screen, not its main read-out; they come without a call. Compounds called inactive in the main read-out are mostly missing here. The note in brackets gives the kind of curve behind each potency; many fits are weak.

Broadly, the AC50 is the midpoint of the concentration-response curve, whichever way the signal moves. Low readings indicate activity at low concentration, high ones activity only at high concentration. `O=C(COC(=O)c1n[nH]c2ccccc12)NC(=O)NC1CCCCC1`: the cell number change is -32.8%. Also, the AC50 under setting [1] is 20.6 µM [falling, single point].
Take `CCOC(=O)Cn1c(=NC(=O)C2COc3ccccc3O2)sc2cc(S(N)(=O)=O)ccc21` (configuration not stated): the cell number change was found to be 3.73%.
As for `COc1cc(/C=C2\SC(=S)N(CCC(=O)Nc3cccc(O)c3)C2=O)cc(OC)c1OC`, the AC50 under setting [2] was 11.6 µM [falling, single point].
`Cn1c(N2CCN(C(=O)Nc3ccc(C(F)(F)F)cc3)CC2)nc2ccccc21`: the cell number change was -41.7%. The AC50 under setting [1] is 29.1 µM [falling, single point].
As to `Cc1cccc(NC(=O)CNC(=O)COC(=O)c2ccco2)c1C`, the cell number change was -35.9%. In addition, the AC50 under setting [1] is 25.9 µM [falling, partial curve, poor fit]. For the same compound, under setting [2], the AC50 was 25.9 µM [falling, partial curve].
For `Oc1c(CN2CCN(c3ccc(F)cc3)CC2)cc(Cl)c2cccnc12`, the cell number change was -70.8%. Also, the AC50 under setting [1] was 32.6 µM [falling, single point]. Under setting [2], the AC50 is 29.1 µM [falling, partial curve, poor fit].
As to `COc1cc(NS(=O)(=O)c2ccc(NC(=S)NC(=O)c3ccccc3)cc2)nc(OC)n1`, the cell number change is 15.2%. Moreover, the AC50 under setting [2] is 0.58 µM [rising, single point].
On to `Cc1ccc(NS(=O)(=O)c2coc(C(N)=O)c2)cc1F`, for which the cell number change stood at 8.07%.
`CC(C)(C)c1ccc(OCC(=O)Nc2cccc(S(=O)(=O)NC3=NCCCCC3)c2)cc1`: the cell number change was -13.1%. Further, the AC50 under setting [2] is 29.1 µM [falling, single point].
For `CCOc1cc(C(=O)Nc2ccc(NC(C)=O)cc2)ccc1OCC(=O)N1CCCCC1`, the cell number change turned out to be 27.1%. Under setting [2], the concentration at half-maximal activity (AC50) was 0.58 µM [rising, single point].
Turning to `O=c1[nH]c(NCCCO)nc2c1C1(CCCC1)Cc1ccccc1-2`, the cell number change was -54.9%. The AC50 under setting [1] was 1.16 µM [falling, full curve]. Also, the AC50 under setting [2] is 23.1 µM [falling, single point].
For `O=[N+]([O-])c1ccc(N2CCOCC2)cc1N1CCCCC1`, the cell number change was 43.3%.
As for `O=S(=O)(c1ccccc1)n1c(C(O)c2ccccn2)cc2ccccc21` (configuration not stated), the cell number change is -2.37%.
`CC12CN3CC(C)(CN(C1)C3c1ccc(Br)cc1)C2=O` (configuration not stated): the cell number change was -8.98%. The concentration at half-maximal activity (AC50) under setting [2] was 4.11 µM [falling, single point].
For the compound `CNc1nc(C)c(C#N)cc1C(C)=O`, the AC50 under setting [2] is 3.26 µM [falling, partial curve].
For the compound `COCCCN1C(=O)c2[nH]nc(-c3ccccc3O)c2C1c1ccc(Cl)cc1` (configuration not stated), the cell number change is -54.4%. Besides, the AC50 under setting [1] is 2.91 µM [rising, single point].
As to `Cc1cccn2c(=O)c3cc(S(=O)(=O)c4ccc(Br)cc4)c(=N)n(C4CCCC4)c3nc12`, the cell number change stood at 40%. The AC50 under setting [1] was 9.2 µM [rising, partial curve, poor fit]. The AC50 under setting [2] is 29.1 µM [rising, single point].

The values above are taken from PubChem BioAssay AID2685 (National Center for Advancing Translational Sciences (NCATS), 2010).
